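Uptake of anthrax lethal toxin into cultured cells, read by FRET (460/530 nm ratio) and reported from the 460 nm channel; the cell line is not named here.
Each compound was tested as a concentration series from about 0.0005 to 40 µM.
The number is the fitted AC50 of the 460 nm signal alone; lower values mean a more potent effect. A falling signal goes with compounds filed as inhibitors or cytotoxic, a rising one with activators or fluorescent compounds (inferred from the filed classes).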

Values are in µM.
Common to all entries: measured here: 460 nm channel.
This is a side read-out of the assay, for part of the compounds, not drawn at random.
A potency from a partial, single-point or poor curve is only a rough figure.
The first word of each remark tells which way the curve ran; it can be opposite to the aim of the assay.

| structure | AC50 (µM) | remark |
|---|---|---|
| `COc1cccc(-c2ccc3ncnc(NCc4ccccc4OC)c3c2)c1` | 10 | falling, partial curve |
| `Nc1ccn([C@@H]2O[C@@H](CO)[C@@H](O)[C@H]2O)c(=O)n1` | 6.31 | falling, partial curve |
| `Cc1noc(C(=O)Nc2ccccc2C(F)(F)F)c1Cl` | 1.259 | falling, full curve |
| `CCSc1nc(-c2ccco2)ccc1C#N` | 0.05012 | falling, single point |
| `Cc1ccnc(NC(=O)CCC(=O)N(CC(=O)NCCc2ccccc2)Cc2ccco2)c1` | 12.59 | rising, partial curve |
| `Cc1cc(-n2c(C)cc(C(=O)CSc3nc4ccccc4c(=O)n3Cc3ccco3)c2C)no1` | 0.01995 | falling, full curve |
| `O=C(Nc1ccc2c(c1)OCO2)c1cn(Cc2ccc(F)cc2)nn1` | 0.01259 | falling, full curve, poor fit |
| `CCCCCCN(C(=O)CCCCCN1C(=O)NC(C2CCCCC2)C(C(=O)OCc2ccccc2)=C1C)C(C(=O)NCCCC)c1ccc(OCC(=O)OC)c(C(=O)OC)c1` (stereo not shown) | 31.62 | falling, single point |
| `O=C(O)CCCc1nc(-c2ccccc2)no1` | 3.981 | falling, single point |
| `CC(C)Sc1nc(NCc2ccco2)c2c3c(sc2n1)COC(C)(C)C3` | 0.007943 | falling, full curve |
| `CCSc1sccc1C1C(C#N)=C(N)N(c2cccnc2)C2=C1C(=O)CCC2` (stereo not shown) | 6.31 | rising, partial curve |
| `C=C1CC[C@H](O)C/C1=C/C=C1\CCC[C@]2(C)[C@H]1CC[C@H]2[C@@H](C)/C=C\[C@@H](C)C(C)C` | 1 | rising, full curve, poor fit |
| `Nc1cccc2c(=O)[nH][nH]c(=O)c12` | 0.3162 | falling, full curve, poor fit |
| `O=C1CC(=O)N(CCc2ccccc2)C(=O)N1CCc1ccccc1` | 15.85 | rising, single point |
| `CN1CCCc2cc3c(C(F)(F)F)cc(=O)oc3nc21` | 3.981 | rising, full curve |
| `CC(=O)C1=C(O)C(=O)N(CCC(=O)O)C1c1cccc(F)c1` (stereo not shown) | 3.162 | rising, single point |
| `Cc1cccc(-n2c(N)cc(=O)nc2SCC(=O)Nc2ccccc2)c1` | 12.59 | rising, partial curve |
| `O=C(c1ccco1)N1CCC[C@@]2(CCN(c3ccccc3)C2)C1` | 10 | rising, single point |
| `COc1ccc(NC(=O)CSc2nc3ccccc3c(=O)n2CCC(=O)N2CCCCC2)cc1` | 2.512 | rising, single point |
| `Cc1ccccc1OCC1CO1` (stereo not shown) | 1 | falling, partial curve, poor fit |
| `CCN(CC)c1ccc(C2C(C(=O)OCCOC(C)C)=C(C)NC3=C2C(=O)CCC3)cc1` (stereo not shown) | 5.012 | rising, full curve, poor fit |
| `CCCCn1c2nc3ccccc3nc2c2c(=N)oc(C)nc21` | 12.59 | rising, partial curve |
| `O=C(C1CCCCN1S(=O)(=O)c1ccc(F)cc1)N1CCN(c2ccccc2F)CC1` (stereo not shown) | 10 | falling, partial curve |
| `O=C(CNC(=O)c1ccc(Cl)cc1)NCCCn1ccnc1` | 0.1 | rising, full curve, poor fit |
| `Cc1c(C(=O)OC2CCCCC2)[nH]c2c1C(=O)CC(C)(C)C2` | 1 | falling, full curve |
| `CCCCCCCCCc1ccc(O)cc1` | 25.12 | falling, partial curve |
| `O=C(Nc1nc(-c2ccccn2)cs1)c1ccc(S(=O)(=O)N2CCCCC2)cc1` | 12.59 | falling, partial curve |
| `O=C(O)[C@H]1CCCC[C@@H]1c1c2ccc(=O)c(O)c-2oc2c(O)c(O)ccc12` | 1.995 | falling, partial curve |
| `Cc1cccc(CNc2nc(-c3cccc(NS(C)(=O)=O)c3)nc3ccccc23)c1` | 25.12 | falling, single point |
| `CCN(C)c1ccc(/C=N\n2nnnc2N)cc1` | 7.943 | rising, partial curve |
| `CCC(C)NC(=O)c1c(N)n(CCCOC)c2nc3ccccc3nc12` (stereo not shown) | 10 | rising, partial curve |
| `COc1cccc2c1cc([N+](=O)[O-])c1c(C(=O)O)cc3c(c12)OCO3` | 5.012 | falling, full curve |
| `O=C(NCCc1ccccc1)c1ccc(Br)o1` | 19.95 | falling, partial curve, poor fit |
| `COCCCNc1nc2c(c(=O)[nH]c(=O)n2C)n1CC(O)COc1cccc(C)c1` (stereo not shown) | 0.01259 | rising, full curve, poor fit |
| `CCCCC(NC(C)=O)c1nc2ccccc2n1CCC` (stereo not shown) | 3.981 | rising, partial curve |
| `Cn1nc(-c2ccc(Cl)cc2)c2cc(C(=O)NCC3CCCO3)sc21` (stereo not shown) | 12.59 | falling, partial curve |
| `CCCCCn1c(=NC(C)=O)c(C#N)cc2c(=O)n3ccccc3nc21` | 0.2512 | rising, full curve |

Once more, the final 2:

Cn1nc(-c2ccc(Cl)cc2)c2cc(C(=O)NCC3CCCO3)sc21 (stereo not shown) read AC50 12.59 µM (falling, partial curve).
CCCCCn1c(=NC(C)=O)c(C#N)cc2c(=O)n3ccccc3nc21 read AC50 0.2512 µM (rising, full curve).

Data taken from PubChem BioAssay AID912, deposited by NCATS (2007).